# PubChem BioAssay AID1259331 | Drosophila RNAi Screening Center, 2017
# Assay: 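Knock-downs that alter ATP level after a high zinc chloride dose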 (primary screen)
# Cell system: Drosophila S2R+ cells
# Reagent: long dsRNA against Drosophila genes
# Duration: 5 days (4 days knock-down, then 1 day zinc)
# Conditions: zinc chloride at 15 mM final level for 1 day
# Read-out: 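Luminescent ATP assay standing in for viability; Z score is the mean over three replicate plates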
# Direction: mean Z score: higher = more ATP than other wells, better survival under zinc; ATP luminescence: higher = more ATP, more viable cells
# Active means: 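a reagent is called a hit when its Z score is above 1.5 or below -1.5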
# Calls: active = hit, ATP up or down; inactive = not a hit
# In all, the deposit lists about 3,100 reagents; shown is an unselected part. 126 of them (4.1%) count as active. 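Calls are per reagent; zinc was so toxic that few knock-downs lowered ATP further, so most hits raise ATP.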 Raw values vary from plate to plate and are shown uncorrected. Reagents against one gene are numbered here. Not stated in the record: the amount of reagent.
Target gene,reagent no.,mean Z score,"ATP luminescence, replicate 1","ATP luminescence, replicate 2",outcome
anchor (GeneID 39965),1,0.368,42851,32218,inactive
nAChRalpha3 (GeneID 31767),1,0.272,72071,69018,inactive
nAChRalpha3 (GeneID 31767),2,0.0594,56876,53567,inactive
sNPF-R (GeneID 40195),1,0.578,89687,70990,inactive
CG13325 (GeneID 36437),1,-0.274,31896,27868,inactive
CG13325 (GeneID 36437),2,-0.328,56808,51355,inactive
CG5715 (GeneID 42895),1,0.877,44236,69979,inactive
CG5715 (GeneID 42895),2,-0.389,43314,46794,inactive
CG3339 (GeneID 43295),1,-0.158,75021,59175,inactive
CG3339 (GeneID 43295),2,0.453,71985,75155,inactive
Catsup (GeneID 48805),1,-0.0638,53687,43039,inactive
Catsup (GeneID 48805),2,-0.467,43622,45988,inactive
Ntl (GeneID 34046),1,-0.115,54974,36953,inactive
Ntl (GeneID 34046),2,0.24,62492,60958,inactive
Nrt (GeneID 39873),1,0.746,35716,38873,inactive
CG1636 (GeneID 31766),1,-0.477,41531,38764,inactive
Cad96Ca (GeneID 43026),1,0.196,35702,62128,inactive
Cad96Ca (GeneID 43026),2,-0.231,40159,42182,inactive
Cad96Ca (GeneID 43026),3,-0.0805,47771,46554,inactive
MFS15 (GeneID 37168),1,-0.489,59079,60941,inactive
MFS15 (GeneID 37168),2,-0.874,54030,41702,inactive
Hip14 (GeneID 39747),1,-0.507,28879,26428,inactive
Gr22c (GeneID 117499),1,0.0491,65471,58768,inactive
CG4324 (GeneID 37830),1,0.352,55848,41085,inactive
CG4324 (GeneID 37830),2,0.144,65005,57871,inactive
Pen (GeneID 34338),1,0.278,52675,68075,inactive
Pen (GeneID 34338),2,-0.00188,47480,47223,inactive
CG5687 (GeneID 38255),1,-0.178,30140,34124,inactive
CG5687 (GeneID 38255),2,-0.162,60478,54992,inactive
Sec61alpha (GeneID 33905),1,0.358,60392,62210,inactive
Or59a (GeneID 37711),1,-0.836,39266,36079,inactive
Or59a (GeneID 37711),2,-0.141,48697,60119,inactive
polyph (GeneID 36161),1,0.0496,77546,69275,inactive
PGRP-SC2 (GeneID 35862),1,-0.0657,37759,45726,inactive
PGRP-SC2 (GeneID 35862),2,0.17,59723,59603,inactive
Tnpo-SR (GeneID 33465),1,1.43,74506,78482,inactive
Tnpo-SR (GeneID 33465),2,1.04,56276,62038,inactive
Ir84a (GeneID 40891),1,-0.365,67758,56499,inactive
Ir84a (GeneID 40891),2,-0.244,63290,58557,inactive
meigo (GeneID 42510),1,-0.702,31803,52653,inactive
meigo (GeneID 42510),2,0.394,57442,64748,inactive
Lgr1 (GeneID 42133),1,-0.332,51269,55522,inactive
Lgr1 (GeneID 42133),2,-0.382,53207,54150,inactive
Or59c (GeneID 37716),1,0.00565,50069,42175,inactive
Or59c (GeneID 37716),2,-0.187,51338,55968,inactive
CG33012 (GeneID 36342),1,-0.334,67914,67920,inactive
CG33012 (GeneID 36342),2,-0.102,41033,40708,inactive
CG3702 (GeneID 33628),1,2.14,83506,89415,active
CG3702 (GeneID 33628),2,-0.119,56808,60358,inactive
CG13794 (GeneID 34048),1,-0.282,47189,40399,inactive
CG13794 (GeneID 34048),2,-0.263,62856,47804,inactive
CG10345 (GeneID 42017),1,-0.0392,45241,45800,inactive
CG17991 (GeneID 43279),1,0.407,70785,74861,inactive
Stim (GeneID 32556),1,-0.744,34868,39079,inactive
Stim (GeneID 32556),2,-0.0545,56173,60255,inactive
CG6927 (GeneID 31419),1,-0.302,41685,44288,inactive
CG6927 (GeneID 31419),2,0.296,62398,66514,inactive
CG13384 (GeneID 34160),1,-0.28,52446,52075,inactive
CG30344 (GeneID 246552),1,0.106,57442,61112,inactive
CG42322 (GeneID 42455),1,-0.177,44531,43828,inactive
CG42322 (GeneID 42455),2,-0.225,35187,54541,inactive
Eglp2 (GeneID 37737),1,-0.622,25931,25022,inactive
Eglp2 (GeneID 37737),2,-0.219,60725,55598,inactive
kirre (GeneID 31292),1,-0.912,47007,54939,inactive
kirre (GeneID 31292),2,-0.195,57460,56894,inactive
rost (GeneID 34222),1,0.0382,56791,56722,inactive
Grik (GeneID 42476),1,-0.0449,45354,46834,inactive
Grik (GeneID 42476),2,-0.0311,34742,59414,inactive
Grik (GeneID 42476),3,-0.0593,52144,57936,inactive
Ptpmeg2 (GeneID 31907),1,-0.122,63187,64885,inactive
Ptpmeg2 (GeneID 31907),2,1.88,72002,73477,active
Ptpmeg2 (GeneID 31907),3,0.345,65760,65605,inactive
CG16736 (GeneID 41101),1,-0.217,38591,55642,inactive
GluRIIE (GeneID 318623),1,0.143,36928,60470,inactive
GluRIIE (GeneID 318623),2,-0.177,60906,52178,inactive
fz2 (GeneID 40090),1,-0.396,27318,29736,inactive
fz2 (GeneID 40090),2,-0.238,73031,54579,inactive
CG2003 (GeneID 43761),1,0.26,70116,70599,inactive
CG2003 (GeneID 43761),2,-0.0132,52255,60049,inactive
Tmem63 (GeneID 35779),1,0.0228,73632,72448,inactive
Tmem63 (GeneID 35779),2,0.349,66320,63719,inactive
Kap-alpha3 (GeneID 41158),1,7.85,1.43e5,1.60e5,active
Or13a (GeneID 32562),1,0.257,70010,70634,inactive
Or13a (GeneID 32562),2,-0.489,49812,53052,inactive
CG32206 (GeneID 40105),1,-0.117,77045,58728,inactive
CG32206 (GeneID 40105),2,0.108,44720,43725,inactive
CG8399 (GeneID 36768),1,-0.404,27456,30867,inactive
CG8399 (GeneID 36768),2,0.139,58746,57572,inactive

9 entries from above, set out differently.
Target gene | reagent no. | mean Z score | ATP luminescence, replicate 1 | ATP luminescence, replicate 2 | outcome
CG1636 (GeneID 31766) | 1 | -0.477 | 41531 | 38764 | inactive
Cad96Ca (GeneID 43026) | 1 | 0.196 | 35702 | 62128 | inactive
Cad96Ca (GeneID 43026) | 2 | -0.231 | 40159 | 42182 | inactive
Cad96Ca (GeneID 43026) | 3 | -0.0805 | 47771 | 46554 | inactive
MFS15 (GeneID 37168) | 1 | -0.489 | 59079 | 60941 | inactive
MFS15 (GeneID 37168) | 2 | -0.874 | 54030 | 41702 | inactive
Hip14 (GeneID 39747) | 1 | -0.507 | 28879 | 26428 | inactive
Gr22c (GeneID 117499) | 1 | 0.0491 | 65471 | 58768 | inactive
CG4324 (GeneID 37830) | 1 | 0.352 | 55848 | 41085 | inactive
